Experimental data taken from US7022343B2, “Controlled release of anti-arrhythmic agents” (Genzyme Corporation, priority 2000, dated 2006).
Counter-ions that a name gives are not always drawn.

Details: FIG. 2A (CORDARONE 0-20%) / FIG. 2B (particulate amiodarone 0-10%)

Compound: CCCCc1oc2ccccc2c1C(=O)c1cc(I)c(OCCN(CC)CC)c(I)c1 [amiodarone, Amiodarone hydrochloride]
- loading level in FOCALSEAL-L formulation that maintains acceptable pH and modulus values: about 1.5%
